According to patent publication US20250085287A1 (ADICET THERAPEUTICS, published 2025):
No constants are given. Whether binding was seen depends on the method and setting. Some binding calls cover weakened binding; strength is not graded here.

By UniProt entry, the sequences of proteins in these tests, tags left out. Residues count along the entry.
UniProt P51654, residues 25-554: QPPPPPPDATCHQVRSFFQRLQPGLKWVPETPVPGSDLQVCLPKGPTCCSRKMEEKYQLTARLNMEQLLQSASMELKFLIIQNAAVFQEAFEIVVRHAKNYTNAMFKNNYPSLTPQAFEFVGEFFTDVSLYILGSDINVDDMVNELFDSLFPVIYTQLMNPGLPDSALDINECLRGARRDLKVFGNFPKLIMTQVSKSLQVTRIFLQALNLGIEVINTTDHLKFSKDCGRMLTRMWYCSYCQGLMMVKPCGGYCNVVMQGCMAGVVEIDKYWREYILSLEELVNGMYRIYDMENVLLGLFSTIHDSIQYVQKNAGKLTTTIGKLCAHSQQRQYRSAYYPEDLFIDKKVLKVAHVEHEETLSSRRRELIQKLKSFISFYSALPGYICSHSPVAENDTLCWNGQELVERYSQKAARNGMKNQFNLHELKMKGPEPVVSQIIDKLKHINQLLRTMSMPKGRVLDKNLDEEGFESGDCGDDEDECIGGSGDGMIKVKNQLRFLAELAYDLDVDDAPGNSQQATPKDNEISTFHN

Columns and labels:
[1] = target: soluble native human GPC3 from tumor cell line supernatants (HepG2, NCI-H661, Hep3B) (human) (UniProt P51654); test: western blot of concentrated supernatants of HepG2, NCI-H661 and Hep3B
[2] = target: soluble native human GPC3 from tumor cell line supernatants (HepG2, NCI-H661, Hep3B) (human) (UniProt P51654); test: western blot of concentrated serum-free supernatants of HepG2, NCI-H661 and Hep3B
[3] = target: soluble native human GPC3 from tumor cell line supernatants (HepG2, NCI-H661, Hep3B) (human) (UniProt P51654); test: western blot of tumor cell line supernatants

Measured: binding

B1: 204 monoclonal antibody (mouse anti-human GPC3) (antibody, IgG2b, V domains shown)
VH: EVQLQQSGPELVKPGASVKISCKTSGYTFTEYAMHWVKQSHGKSLEWIGGINPNNGVTTYNQRFKGKATLTVDKSSSTAYMELRSLTSEDSAVYYCARGLLWYAYWGQGTLVTVSA
VL: DIKMTQSPSSMYASLGERVTITCKASQDINSYLSWFQQKPGKSPKTLIYRANRLVDGVPSRFSGSGSGQDYSLTISSLEYEDMGIYYCLQYDEFPLTFGAGTKLELK
notes: also called GPC.204
binds: all assays above
